Experimental data from patent US20190382486A1 (Pfizer, published 2019).
No constants are given. Whether binding was seen depends on the method and setting. Some binding calls cover weakened binding; strength is not graded here.

T1: CD3ed (CD3 epsilon/delta fusion protein) (human)
T1 construct: Expressed in HEK293 and purified on His60 resin and by SEC; also called soluble human CD3ed antigen; hCD3ed
T1 chain: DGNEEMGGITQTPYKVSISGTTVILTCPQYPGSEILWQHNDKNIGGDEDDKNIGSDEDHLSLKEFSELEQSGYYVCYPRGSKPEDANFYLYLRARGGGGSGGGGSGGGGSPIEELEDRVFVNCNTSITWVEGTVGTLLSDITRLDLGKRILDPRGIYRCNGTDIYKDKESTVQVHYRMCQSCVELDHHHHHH

B1: 2B5-0006 (2B5v6) (antibody, V domains shown)
VH: EVQLVESGGGLVQPGGSLRLSCAASGFTFSDYYMTWVRQAPGKGLEWVAFIRNQARGYTSDHNPSVKGRFTISRDNAKNSLYLQMNSLRAEDTAVYYCARDRPSYYVLDYWGQGTTVTVSS
VL: DIQMTQSPSSLSASVGDRVTITCTSSQSLFNVRSQKNYLAWYQQKPGKAPKLLIYWASTRESGVPSRFSGSGSGTDFTLTISSLQPEDFATYYCKQSYDLFTFGGGTKVEIK
notes: also called h2B5v6; parental 2B5v6
B2: 2B5v6-0623 (antibody, V domains shown)
VH: EVQLVESGGGLVQPGGSLRLSCAASGFTFSDYYMTWVRQAPGKGLEWVAFIRNQARGYTSDHQPSVKGRFTISRDNAKNSLYLQMNSLRAEDTAVYYCARDRPSYYVLDYWGQGTTVTVSS
VL: DIQMTQSPSSLSASVGDRVTITCTSDQSLFNVRSGKNYLAWYQQKPGKAPKLLIYWASDRESGVPSRFSGSGSGTDFTLTISSLQPEDFATYYCKQSYDLFTFGGGTKVEIK
B3: 2B5v6-0598 (antibody, V domains shown)
VH: EVQLVESGGGLVQPGGSLRLSCAASGFTFSDYYMTWVRQAPGKGLEWVAFIRNQDRGYTSDHQPSVKGRFTISRDNAKNSLYLQMNSLRAEDTAVYYCARDRPSYYVLDYWGQGTTVTVSS
VL: DIQMTQSPSSLSASVGDRVTITCTSDQSLFNVRSGKNYLAWYQQKPGKAPKLLIYWASDRESGVPSRFSGSGSGTDFTLTISSLQPEDFATYYCKQSYDLFTFGGGTKVEIK
B4: 2B5-0001 (2B5 antibody), h2B4 1.0/1.0T (antibody, V domains shown)
VH: EVQLVESGGGLVQPGGSLRLSCAASGFTFSDYYMTWVRQAPGKGLEWVAFIRNRARGYTSDHNPSVKGRFTISRDNAKNSLYLQMNSLRAEDTAVYYCARDRPSYYVLDYWGQGTTVTVSS
VL: DIQMTQSPSSLSASVGDRVTITCTSSQSLFNVRSRKNYLAWYQQKPGKAPKLLIYWASTRESGVPSRFSGSGSGTDFTLTISSLQPEDFATYYCKQSYDLFTFGGGTKVEIK
B5: 2B5v6-0517 (antibody, V domains shown)
VH: EVQLVESGGGLVQPGGSLRLSCAASGFTFSDYYMTWVRQAPGKGLEWVAFIRNQARGYTSDHQPSVKGRFTISRDNAKNSLYLQMNSLRAEDTAVYYCARDRPSYYVLDYWGQGTTVTVSS
VL: DIQMTQSPSSLSASVGDRVTITCTSSQSLFNVRSGKNYLAWYQQKPGKAPKLLIYWASTRESGVPSRFSGSGSGTDFTLTISSLQPEDFATYYCKQSYDLFTFGGGTKVEIK
notes: Tested as a monovalent IgG; also called 2B5-0517
B6: 2B5v6-0522 (antibody, V domains shown)
VH: EVQLVESGGGLVQPGGSLRLSCAASGFTFSDYYMTWVRQAPGKGLEWVAFIRNQARGYTSDHQPSVKGRFTISRDNAKNSLYLQMNSLRAEDTAVYYCARDRPSYYVLDYWGQGTTVTVSS
VL: DIQMTQSPSSLSASVGDRVTITCTSSQSLFNVRSQKNYLAWYQQKPGKAPKLLIYWASDRESGVPSRFSGSGSGTDFTLTISSLQPEDFATYYCKQSYDLFTFGGGTKVEIK
notes: Tested as a monovalent IgG; also called 2B5-0522
B7: 2B5v6-0533 (antibody, V domains shown)
VH: EVQLVESGGGLVQPGGSLRLSCAASGFTFSDYYMTWVRQAPGKGLEWVAFIRNQARGYTSDHNPSVKGRFTISRDNAKNSLYLQMNSLRAEDTAVYYCARDRPSYYVLDYWGQGTTVTVSS
VL: DIQMTQSPSSLSASVGDRVTITCTSSQSLFNVRSGKNYLAWYQQKPGKAPKLLIYWASTRESGVPSRFSGSGSGTDFTLTISSLQPEDFATYYCKQSYDLFTFGGGTKVEIK
notes: Tested as a monovalent IgG; also called 2B5-0533
B8: 2B5v6-0538 (antibody, V domains shown)
VH: EVQLVESGGGLVQPGGSLRLSCAASGFTFSDYYMTWVRQAPGKGLEWVAFIRNQARGYTSDHNPSVKGRFTISRDNAKNSLYLQMNSLRAEDTAVYYCARDRPSYYVLDYWGQGTTVTVSS
VL: DIQMTQSPSSLSASVGDRVTITCTSSQSLFNVRSQKNYLAWYQQKPGKAPKLLIYWASDRESGVPSRFSGSGSGTDFTLTISSLQPEDFATYYCKQSYDLFTFGGGTKVEIK
notes: Tested as a monovalent IgG; also called 2B5-0538

Experiments:
[1] = target: human CD3 epsilon subunit (CD3e), as cell surface CD3 on Jurkat cells and on naive human T cells (human) (UniProt P07766); test: flow cytometry (FACS) on Jurkat cells expressing CD3, MFI (PE) against antibody concentration in nM
[2] = target: human CD3 epsilon subunit (CD3e), as cell surface CD3 on Jurkat cells and on naive human T cells (human) (UniProt P07766); test: FACS on Jurkat cells expressing CD3
[3] = target: human CD3 epsilon subunit (CD3e), as cell surface CD3 on Jurkat cells and on naive human T cells (human) (UniProt P07766); test: FACS on Jurkat cells, compared to 2B5v6
[4] = target: human CD3 epsilon subunit (CD3e), as cell surface CD3 on Jurkat cells and on naive human T cells (human) (UniProt P07766); test: competition FACS on Jurkat cells
[5] = target: T1, CD3ed (CD3 epsilon/delta fusion protein); test: SPR (Biacore), antibody captured on anti-human Fc, soluble CD3 antigen at 0-100 nM
[6] = target: human CD3 epsilon subunit (CD3e), as cell surface CD3 on Jurkat cells and on naive human T cells (human) (UniProt P07766); test: FACS on Jurkat cells expressing CD3, compared to parental 2B5v6

Binder	binding [1]	binding [6]	other results
B1	binds		
B2	binds		binding [2]: binds; binding [3]: binds
B3	binds		binding [2]: binds; binding [3]: binds
B4			binding [4]: binds; binding [5]: binds
B5		binds	
B6		binds	
B7		binds	
B8		binds	
